Source: PubChem BioAssay (EPA / NIEHS)
Values joined by “and” are separate entries in the source; they are usually repeats but may differ in a detail not shown here. Equal values may be shown once. The inconclusive results got no clear call from the source; some entries with a clear call stand among them for comparison. For some assays here: A potency beside an inconclusive call is a rough fit, not a confirmed value. Where a structure was tested more than once in an assay, its records may differ in their call. Active and inactive are the calls of the source. The calls were made as follows: active = hit-call score of the fitted dose curve at least 0.9, where 1 is the maximum; inconclusive = response in the unintended direction; inactive = score below 0.9.

Chains of the proteins cited; added tags and fusions are not shown. Lines headed by an entry give the natural chain unless they say otherwise; changes in a name come on top.
UniProt P10275: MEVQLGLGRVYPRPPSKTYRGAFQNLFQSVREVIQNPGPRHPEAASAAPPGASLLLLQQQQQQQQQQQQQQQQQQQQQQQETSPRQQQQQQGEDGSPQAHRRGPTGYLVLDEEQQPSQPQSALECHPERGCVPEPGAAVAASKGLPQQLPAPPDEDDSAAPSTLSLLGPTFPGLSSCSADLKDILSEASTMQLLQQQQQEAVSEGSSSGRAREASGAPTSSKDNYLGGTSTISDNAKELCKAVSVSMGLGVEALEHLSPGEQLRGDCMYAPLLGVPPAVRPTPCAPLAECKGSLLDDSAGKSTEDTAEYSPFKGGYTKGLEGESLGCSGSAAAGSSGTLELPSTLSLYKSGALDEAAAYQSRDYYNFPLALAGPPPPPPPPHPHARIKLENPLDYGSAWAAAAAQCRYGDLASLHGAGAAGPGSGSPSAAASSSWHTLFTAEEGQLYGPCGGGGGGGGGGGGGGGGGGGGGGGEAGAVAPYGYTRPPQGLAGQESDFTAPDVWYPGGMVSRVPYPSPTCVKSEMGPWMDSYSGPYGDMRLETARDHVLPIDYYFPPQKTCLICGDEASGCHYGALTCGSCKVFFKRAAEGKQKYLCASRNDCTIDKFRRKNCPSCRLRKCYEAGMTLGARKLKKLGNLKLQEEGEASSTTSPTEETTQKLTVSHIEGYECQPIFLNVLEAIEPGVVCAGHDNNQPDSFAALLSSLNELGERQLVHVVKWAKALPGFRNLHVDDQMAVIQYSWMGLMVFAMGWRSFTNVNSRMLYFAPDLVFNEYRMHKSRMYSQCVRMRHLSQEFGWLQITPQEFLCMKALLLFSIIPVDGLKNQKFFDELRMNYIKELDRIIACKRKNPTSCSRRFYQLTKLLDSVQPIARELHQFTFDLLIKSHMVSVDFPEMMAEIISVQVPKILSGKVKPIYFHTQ
UniProt P19793: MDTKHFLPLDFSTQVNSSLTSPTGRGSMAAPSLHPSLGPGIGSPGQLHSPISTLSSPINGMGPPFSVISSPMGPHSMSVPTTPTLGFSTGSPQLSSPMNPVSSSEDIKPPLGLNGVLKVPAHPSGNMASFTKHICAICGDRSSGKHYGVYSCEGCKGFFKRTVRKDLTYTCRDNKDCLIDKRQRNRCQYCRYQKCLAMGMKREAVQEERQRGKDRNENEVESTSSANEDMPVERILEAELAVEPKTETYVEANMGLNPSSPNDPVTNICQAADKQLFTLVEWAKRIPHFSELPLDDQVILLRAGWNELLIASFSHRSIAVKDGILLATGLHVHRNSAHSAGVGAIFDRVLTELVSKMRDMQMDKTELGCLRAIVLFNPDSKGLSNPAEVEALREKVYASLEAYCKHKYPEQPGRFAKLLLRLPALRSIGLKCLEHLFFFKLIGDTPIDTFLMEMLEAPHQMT
UniProt Q96RI1: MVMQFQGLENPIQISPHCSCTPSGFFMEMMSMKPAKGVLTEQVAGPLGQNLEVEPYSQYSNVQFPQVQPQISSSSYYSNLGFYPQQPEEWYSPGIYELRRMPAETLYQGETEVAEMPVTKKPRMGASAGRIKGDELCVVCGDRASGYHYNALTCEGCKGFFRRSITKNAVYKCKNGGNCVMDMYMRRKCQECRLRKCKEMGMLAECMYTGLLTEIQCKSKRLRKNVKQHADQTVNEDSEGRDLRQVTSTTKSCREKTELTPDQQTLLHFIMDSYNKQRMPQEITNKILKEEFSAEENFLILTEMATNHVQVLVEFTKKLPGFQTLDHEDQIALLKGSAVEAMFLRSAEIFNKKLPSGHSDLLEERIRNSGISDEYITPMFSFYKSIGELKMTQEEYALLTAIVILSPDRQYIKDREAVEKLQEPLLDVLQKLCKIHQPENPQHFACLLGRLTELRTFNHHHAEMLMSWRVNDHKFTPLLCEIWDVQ
UniProt P04637, whole entry, looked up: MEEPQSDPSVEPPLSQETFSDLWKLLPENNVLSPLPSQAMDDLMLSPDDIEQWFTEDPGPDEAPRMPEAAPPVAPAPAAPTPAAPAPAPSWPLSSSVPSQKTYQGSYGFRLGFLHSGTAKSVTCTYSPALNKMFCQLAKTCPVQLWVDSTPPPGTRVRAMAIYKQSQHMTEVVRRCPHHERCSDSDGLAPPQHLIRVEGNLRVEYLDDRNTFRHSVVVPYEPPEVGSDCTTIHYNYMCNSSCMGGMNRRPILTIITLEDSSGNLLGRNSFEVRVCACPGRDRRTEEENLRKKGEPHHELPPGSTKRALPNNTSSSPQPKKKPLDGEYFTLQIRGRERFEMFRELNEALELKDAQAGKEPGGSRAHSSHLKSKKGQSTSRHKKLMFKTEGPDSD
UniProt P03372, whole entry, looked up: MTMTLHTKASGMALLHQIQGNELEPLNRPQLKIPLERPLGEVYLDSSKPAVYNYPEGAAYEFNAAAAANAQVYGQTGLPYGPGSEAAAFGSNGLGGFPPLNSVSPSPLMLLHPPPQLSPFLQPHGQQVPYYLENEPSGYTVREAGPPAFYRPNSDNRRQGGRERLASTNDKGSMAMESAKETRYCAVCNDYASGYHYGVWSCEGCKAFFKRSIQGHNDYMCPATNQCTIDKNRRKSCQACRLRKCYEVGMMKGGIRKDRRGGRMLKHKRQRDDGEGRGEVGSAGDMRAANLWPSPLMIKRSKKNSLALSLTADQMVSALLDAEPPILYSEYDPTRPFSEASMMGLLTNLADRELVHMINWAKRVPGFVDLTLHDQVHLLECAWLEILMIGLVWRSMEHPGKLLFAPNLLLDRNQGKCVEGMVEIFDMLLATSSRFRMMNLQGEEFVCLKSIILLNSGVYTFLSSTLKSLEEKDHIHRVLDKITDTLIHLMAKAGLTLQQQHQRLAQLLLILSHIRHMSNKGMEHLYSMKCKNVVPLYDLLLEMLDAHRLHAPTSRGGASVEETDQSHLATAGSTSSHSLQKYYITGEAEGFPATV
UniProt P37231: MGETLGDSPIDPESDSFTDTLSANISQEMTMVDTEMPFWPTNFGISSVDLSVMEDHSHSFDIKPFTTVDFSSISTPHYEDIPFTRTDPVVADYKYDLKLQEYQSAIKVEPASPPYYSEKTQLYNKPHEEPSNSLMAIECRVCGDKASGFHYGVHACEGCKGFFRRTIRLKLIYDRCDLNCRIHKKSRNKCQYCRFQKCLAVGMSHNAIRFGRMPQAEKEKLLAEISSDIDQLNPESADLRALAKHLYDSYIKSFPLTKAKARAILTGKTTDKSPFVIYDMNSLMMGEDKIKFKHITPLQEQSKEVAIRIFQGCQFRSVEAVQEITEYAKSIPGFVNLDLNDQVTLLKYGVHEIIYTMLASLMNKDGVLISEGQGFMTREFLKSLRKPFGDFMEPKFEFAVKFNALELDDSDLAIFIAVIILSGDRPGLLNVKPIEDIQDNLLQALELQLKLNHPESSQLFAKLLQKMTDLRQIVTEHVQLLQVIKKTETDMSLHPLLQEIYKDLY
UniProt Q92731, whole entry, looked up: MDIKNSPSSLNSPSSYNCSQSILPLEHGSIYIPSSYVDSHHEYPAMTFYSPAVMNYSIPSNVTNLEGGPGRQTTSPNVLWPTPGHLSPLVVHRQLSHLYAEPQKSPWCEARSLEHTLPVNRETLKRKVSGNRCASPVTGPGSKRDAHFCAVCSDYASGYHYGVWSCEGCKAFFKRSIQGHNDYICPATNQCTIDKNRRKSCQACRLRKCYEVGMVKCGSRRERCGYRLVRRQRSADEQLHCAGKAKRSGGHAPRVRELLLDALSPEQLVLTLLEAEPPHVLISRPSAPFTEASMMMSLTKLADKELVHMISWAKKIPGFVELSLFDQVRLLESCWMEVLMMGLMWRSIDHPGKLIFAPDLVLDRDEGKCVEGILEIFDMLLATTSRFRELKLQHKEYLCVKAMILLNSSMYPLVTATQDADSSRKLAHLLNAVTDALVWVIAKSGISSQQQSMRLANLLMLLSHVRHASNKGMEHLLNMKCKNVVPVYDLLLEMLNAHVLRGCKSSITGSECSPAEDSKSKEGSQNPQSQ

Tests used:
[1] = molecular target: Agonist Androgen Response Element (ARE), AR (gene 367) (UniProt P10275); test: OT_AR_ARELUC_AG_1440: Odyssey Thera (OT) 24-hour CHO-K1 Luciferase Assay for Agonist Androgen Response Element (ARE) (AID 2283379)
Method in brief: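 Gain-of-signal reporter endpoint: cells (CHO-K1, hamster) are treated 24 h, luciferin/ATP reagent added, and luminescence compared with DMSO baseline.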

[2] = molecular target: Retinoic acid receptor RXR-alpha (Homo sapiens) (UniProt P19793); test: OT_NURR1_NURR1RXRa_0480: Odyssey Thera (OT) 8-hour HEK293T Protein Complementation Assay for Nurr1/retinoid X receptor (RXR) (AID 2283385)
Method in brief: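 Interaction of bait and prey reconstitutes a functional reporter, whose fluorescence was measured in HEK293T cells dosed with compound for 8 hours. Signal gain relative to DMSO defined the single endpoint.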

[3] = molecular target: Retinoic acid receptor RXR-alpha (Homo sapiens) (UniProt P19793); test: OT_NURR1_NURR1RXRa_1440: Odyssey Thera (OT) 24-hour HEK293T Protein Complementation Assay for Nurr1/retinoid X receptor (RXR) (AID 2283386)
Method in brief: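 Steps: fragment-tagged Nurr1 and RXRα expressed in HEK293T; compounds added; after 24 h, complemented reporter quantified by fluorescence intensity; signal increase over DMSO fitted as the single endpoint.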

[4] = molecular target: Bile acid receptor (Homo sapiens) (UniProt Q96RI1); test: OT_FXR_FXRSRC1_0480: Odyssey Thera (OT) 8-hour HEK293T Protein-Complementation Assay for Farnesoid X receptor/SRC-1 Co-activator (AID 2283383)
Method in brief: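 PCA, HEK293T, 8 h compound exposure; FXR–SRC-1 binding reconstitutes split reporter; fluorescence intensity; positive-direction fit vs DMSO.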

[5] = molecular target: Bile acid receptor (Homo sapiens) (UniProt Q96RI1); test: OT_FXR_FXRSRC1_1440: Odyssey Thera (OT) 24-hour HEK293T Protein-Complementation Assay for Farnesoid X receptor/SRC-1 Co-activator (AID 2283384)
Method in brief: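 Measures ligand-driven FXR–SRC-1 co-activator recruitment in HEK293T via fragment complementation, fluorescence intensity at 24 h. DMSO served as negative control and baseline for gain-of-signal fitting.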

[6] = TOX21_p53_BLA_p2_viability: Viability Assessment in the Tox21 HCT-116 p53 Agonism Beta-lactamase Assay, Phase 2 (AID 2283591);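 also: actives lower the ATP signal meaning cytotoxicity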
Method in brief: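 HCT116 p53-bla cells, 4000/well, dosed after 5 h plating (217-fold dilution of DMSO stocks) and incubated 16 h at 37C. Viability taken as cellular ATP by CellTiter-Glo luminescence after 30 min RT; signal loss marks cytotoxicity.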

[7] = molecular target: Cellular tumor antigen p53 (Homo sapiens) (UniProt P04637); test: TOX21_p53_BLA_p2_ratio: Tox21 HCT-116 p53 Agonism Beta-lactamase Assay, Ratio, Phase 2 (AID 2283592)
Method in brief: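 First, HCT116 reporter cells settle for 5 h at 37C. Next, DMSO compound solutions are pinned in (217-fold dilution) and left 16 h. Finally, CCF4-AM substrate is loaded 2 h at room temperature and the 460/530 nm ratio read.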

[8] = TOX21_p53_BLA_p3_viability: Viability Assessment in the Tox21 HCT-116 p53 Agonism Beta-lactamase Assay, Phase 3 (AID 2283593);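 also: cells exposed to compound for 16 h before reading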
Method in brief: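 HCT116 cells, 4000/well, dosed 5 h after plating by pin transfer (217-fold dilution from DMSO stock) and incubated 16 h at 37C, 5% CO2. Viability read as ATP luminescence with CellTiter-Glo after 30 min at room temperature.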

[9] = TOX21_p53_BLA_p4_viability: Viability Assessment in the Tox21 HCT-116 p53 Agonism Beta-lactamase Assay, Phase 4 (AID 2283597);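 also: hits lower the luminescence signal meaning cytotoxicity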
Method in brief: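 4000 HCT116 cells per well; 5 h attachment; compounds from DMSO, 217-fold dilution; 16 h at 37C. Then CCF4-AM, 2 h RT, followed by CellTiter-Glo, 30 min RT, luminescence. Decrease = cytotoxicity.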

[10] = molecular target: Cellular tumor antigen p53 (Homo sapiens) (UniProt P04637); test: TOX21_p53_BLA_p5_ratio: Tox21 HCT-116 p53 Agonism Beta-lactamase Assay, Ratio, Phase 5 (AID 2283599)
Method in brief: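 HCT-116 p53-bla cells (4000/well) plated 5 h, dosed with compound (217-fold DMSO dilution) for 16 h at 37 C; CCF4-AM substrate 2 h at room temperature. Activity is the 460/530 nm emission ratio (405 nm excitation), fitted in gain-of-signal direction versus DMSO.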

[11] = TOX21_p53_BLA_p5_viability: Viability Assessment in the Tox21 HCT-116 p53 Agonism Beta-lactamase Assay, Phase 5 (AID 2283600)
Method in brief: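 Decreased CellTiter-Glo luminescence denotes lost viability. Exposure: 16 h at 37C, 5% CO2, with compounds from DMSO stocks diluted 217-fold in wells of 4000 cells.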

[12] = molecular target: Cellular tumor antigen p53 (Homo sapiens) (UniProt P04637); test: TOX21_p53_BLA_p4_ratio: Tox21 HCT-116 p53 Agonism Beta-lactamase Assay, Ratio, Phase 4 (AID 2283601)
Method in brief: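 HCT-116 p53 beta-lactamase reporter cells (4000/well) preincubated 5 h, then compound (217-fold dilution of DMSO stock) for 16 h at 37C. CCF4-AM substrate added 2 h at room temperature; 460/530 nm emission ratio fitted upward versus DMSO.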

[13] = molecular target: Estrogen receptor (Homo sapiens) (UniProt P03372); test: OT_ERa_GFPERaERE_0120: Odyssey Thera (OT) 2-hour HeLa Transcription Induction Assay for Estrogen Receptor (AID 2283382)
Method in brief: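 Cells (human cervical HeLa) receive compound, incubate 2 hours, then are imaged for fluorescent reporter induction. Images are quantified by high content analysis, and activity is fitted as gain of signal against DMSO.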

[14] = molecular target: Cellular tumor antigen p53 (Homo sapiens) (UniProt P04637); test: TOX21_p53_BLA_p3_ratio: Tox21 HCT-116 p53 Agonism Beta-lactamase Assay, Ratio, Phase 3 (AID 2283596)
Method in brief: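 Cells were seeded at 4000/well, rested 5 h at 37C, then dosed with DMSO compound solutions (217-fold dilution) for 16 h. CCF4-AM substrate was loaded for 2 h at room temperature, and the 460/530 nm emission ratio was fitted for gain of signal versus DMSO.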

[15] = ATG_XTT_Cytotoxicity: Cytotoxicity Assessment in the Attagene TRANS-FACTORIAL HepG2 Assay (AID 2283584);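 as to AC50: XTT signal for cell number as viability in transfected HepG2 cells; cells exposed to compound for 24 h before reading; active means loss of viability signal versus DMSO baseline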
Method in brief: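 HepG2 cells transiently transfected with GAL4-UAS multiple reporter units, dosed 24 h; cytotoxicity read by XTT as loss of signal versus DMSO baseline.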

[16] = molecular target: Peroxisome proliferator-activated receptor gamma (Homo sapiens) (UniProt P37231); test: OT_PPARg_PPARgSRC1_0480: Odyssey Thera (OT) 8-hour Protein-Complementation Assay for Peroxisome Proliferator-activated Receptor Gamma / SRC-1 Co-activator (AID 2283387);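 also: nuclear to cytoplasmic split Venus YFP fluorescence ratio reporting PPARg SRC-1 interaction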
Method in brief: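 Protein-fragment complementation in HEK293T: Venus YFP halves (residues 1-158, 159-239, mutated to IFP1/IFP2) fused to PPARg/SRC-1. 8 h exposure; N/C ratio at 488 nm; DMSO negative control.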

[17] = molecular target: Estrogen receptor beta (Homo sapiens) (UniProt Q92731); test: OT_ER_ERbERb_1440: Odyssey Thera (OT) 24-hour HEK293T Protein-Complementation Assay for Estrogen Receptor-beta/-beta Homodimer (AID 2283380);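 also: scored as signal increase over DMSO baseline for both agonists and antagonists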
Method in brief: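 HEK293T cells stably expressing ER beta LBD (aa 310-547) homodimer fragment-complementation reporter, dosed 24 h. Cells formaldehyde-fixed, Draq5-stained; gain in nuclear (agonist) or nuclear plus cytoplasmic (antagonist) fluorescence versus DMSO read by laser scanning cytometry.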

Compound: CCc1cccc(CC)c1N(COC)C(=O)CCl
- AC50 [1]: inconclusive: 50 µM
- AC50 [2]: inconclusive: 50 µM
- outcome [2]: inactive
- AC50 [3]: active: 714 nM and inconclusive: 20 µM

Compound: O=C(N[C@H]1CN2CCC1CC2)c1ccc2c(c1)OCCO2
- AC50 [1]: inconclusive: 50 µM
- AC50 [2]: inconclusive: 9.92 µM

Compound: N#Cc1cc(Br)c(O)c(Br)c1
- AC50 [1]: inconclusive: 40 µM
- AC50 [4]: inconclusive: 5.6 µM
- AC50 [5]: inconclusive: 11.6 µM
- AC50 [2]: inconclusive: 74.6 µM and inconclusive: 40 µM
- AC50 [3]: inconclusive: 40 µM and inconclusive: 15.2 µM
- outcome [6]: inactive
- AC50 [7]: active: 40 µM and active: 56 µM
- AC50 [8]: inconclusive: 36.9 µM
- outcome [9]: inactive
- AC50 [10]: active: 57.3 µM and active: 72.4 µM
- AC50 [11]: inconclusive: 36.9 µM and inconclusive: 46 µM
- AC50 [12]: active: 57.9 µM and active: 74.3 µM

Compound: CCCCNC(=O)OCC#CI
- AC50 [13]: active: 12.1 µM
- AC50 [4]: inconclusive: 92.1 µM
- AC50 [5]: inconclusive: 87 µM
- AC50 [7]: active: 67 µM
- AC50 [14]: active: 59.5 µM and active: 78 µM
- AC50 [9]: active: 35.9 µM
- AC50 [10]: active: 78.1 µM
- AC50 [11]: inconclusive: 14.2 µM
- AC50 [12]: active: 12.8 µM
- outcome [12]: inactive

Compound: [N-]=[N+]=[N-]
- outcome [1]: inactive
- AC50 [3]: inconclusive: 50 µM and inconclusive: 9.92 µM
- AC50 [15]: inconclusive: 19.8 µM
- AC50 [8]: inconclusive: 0.352 µM
- outcome [14]: inactive
- AC50 [9]: inconclusive: 49.3 µM
- outcome [9]: inactive
- AC50 [10]: inconclusive: 49.3 µM

Compound: Clc1ccc(C(c2ccc(Cl)cc2)C(Cl)Cl)cc1
- AC50 [4]: inconclusive: 85.8 µM
- AC50 [5]: inconclusive: 73.4 µM
- AC50 [2]: active: 92.4 µM
- AC50 [3]: inconclusive: 6.17 µM and active: 80.9 µM
- AC50 [16]: inconclusive: 50 µM
- AC50 [6]: active: 59.6 µM and active: 33.7 µM
- AC50 [7]: active: 68 µM
- AC50 [8]: active: 79.1 µM and active: 50.6 µM
- AC50 [14]: active: 48.4 µM
- AC50 [9]: active: 63.4 µM and active: 46.7 µM
- AC50 [10]: active: 89.8 µM and active: 85.4 µM
- AC50 [11]: active: 81.2 µM and active: 73.1 µM
- AC50 [12]: active: 78.4 µM and active: 79.1 µM

Compound: Cl/C=C\C[N+]12CN3CN(CN(C3)C1)C2
- AC50 [1]: inconclusive: 93 µM
- AC50 [4]: inconclusive: 50 µM
- AC50 [5]: inconclusive: 33.5 µM
- AC50 [2]: inconclusive: 65.4 µM
- AC50 [3]: inconclusive: 59.6 µM
- outcome [6]: inactive
- outcome [8]: inactive
- outcome [14]: inactive
- AC50 [9]: inconclusive: 9.23 µM
- AC50 [11]: inconclusive: 46.1 µM

Compound: O=C(CCl)Nc1ccccc1
- outcome [17]: inactive
- AC50 [5]: inconclusive: 21.1 µM
- AC50 [2]: inconclusive: 80.3 µM
- AC50 [3]: inconclusive: 50 µM
- outcome [8]: inactive
- AC50 [11]: inconclusive: 0.0437 µM
- outcome [12]: inactive

Compound: Cc1cc2c3c(c1)C(c1ccccc1)=N[C@@H](NC(=O)c1ccncc1)C(=O)N3CC2
- AC50 [4]: active: 20.8 µM
- AC50 [5]: active: 32.8 µM
- AC50 [2]: active: 62 µM
- AC50 [3]: active: 33.6 µM
- AC50 [16]: active: 25 µM and active: 20.8 µM
- AC50 [6]: inconclusive: 46.1 µM
- AC50 [8]: inconclusive: 46.1 µM
- AC50 [9]: inconclusive: 87.4 µM
- AC50 [10]: inconclusive: 46.1 µM
- AC50 [11]: inconclusive: 46.1 µM

Compound: CCC(=O)O[C@H]1CC[C@H]2[C@@H]3CCC4=CC(=O)CC[C@]4(C)[C@H]3CC[C@]12C
- AC50 [1]: active: 3.34 nM and active: 0.907 nM and active: 1.93 nM
- AC50 [6]: active: 70.4 µM
- AC50 [7]: active: 87.7 µM
- AC50 [8]: active: 82 µM
- outcome [8]: inactive
- AC50 [9]: inconclusive: 46.1 µM and inconclusive: 10.3 µM
- AC50 [10]: inconclusive: 46.1 µM
- AC50 [12]: inconclusive: 78 µM and inconclusive: 10.3 µM

Compound: C=CC#N
- AC50 [13]: inconclusive: 50 µM
- outcome [2]: inactive
- outcome [6]: inactive
- AC50 [8]: inconclusive: 52.7 µM
- AC50 [9]: inconclusive: 85.1 µM
- outcome [10]: inactive
- outcome [11]: inactive
- AC50 [12]: inconclusive: 46.1 µM

Compound: O=C(NC(=O)c1c(F)cccc1F)Nc1cc(Cl)c(OC(F)(F)C(F)C(F)(F)F)cc1Cl (stereo not drawn)
- AC50 [4]: active: 50 µM
- AC50 [5]: active: 43.7 µM
- AC50 [2]: active: 66.5 µM
- AC50 [3]: active: 50 µM
- outcome [15]: inactive
- outcome [9]: inactive
- outcome [11]: inactive

Compound: Cc1cc(C)c(C2=C(OC(=O)CC(C)(C)C)C3(CCCC3)OC2=O)c(C)c1
- outcome [4]: inactive
- outcome [5]: inactive
- outcome [2]: inactive

Compound: O=c1ssc(Cl)c1Cl
- AC50 [17]: inconclusive: 50 µM
- AC50 [4]: inconclusive: 32.6 µM
- AC50 [5]: active: 11.4 µM
- AC50 [2]: inconclusive: 90 µM
- AC50 [3]: inconclusive: 75.2 µM
- outcome [15]: inactive
- outcome [6]: inactive
- outcome [7]: inactive
- AC50 [8]: active: 73.7 µM
- AC50 [14]: active: 61.2 µM
- AC50 [9]: inconclusive: 46.1 µM
